Assay results published in patent publication US7928099B2, “Pyrimido [4,5-D] azepine derivatives as 5-HT2c agonists” (Pfizer Inc, priority 2007, dated 2011).
The match of structure and compound is tentative.

Chains of the proteins cited; added tags and fusions are not shown. Residues count along the entry.
UniProt P28335, 33-458 limits assumed: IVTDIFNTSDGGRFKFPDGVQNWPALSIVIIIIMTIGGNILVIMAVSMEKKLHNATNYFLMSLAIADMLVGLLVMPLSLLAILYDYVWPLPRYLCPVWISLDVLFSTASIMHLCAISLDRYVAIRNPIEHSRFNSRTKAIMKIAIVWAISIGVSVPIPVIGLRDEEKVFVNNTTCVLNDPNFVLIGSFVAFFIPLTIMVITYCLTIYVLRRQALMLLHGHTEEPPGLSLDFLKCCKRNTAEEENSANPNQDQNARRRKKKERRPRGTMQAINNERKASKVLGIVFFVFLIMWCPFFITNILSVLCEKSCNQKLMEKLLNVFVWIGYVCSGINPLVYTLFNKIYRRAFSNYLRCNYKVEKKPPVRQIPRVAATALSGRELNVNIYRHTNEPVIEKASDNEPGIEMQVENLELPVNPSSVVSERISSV

Target: human recombinant 5-HT2c receptor (Homo sapiens, UniProt P28335)
Test: FLIPR fluorescent Ca2+ mobilisation agonist assay in CHO K1 cells (Method 1)
Assay type: cell-based
Details: tested form: TFA

**Q.** How did the EC50 (agonist affinity, FLIPR) turn out when COc1ccc(COc2nc(Cc3ccccc3)nc3c2CCNCC3)cc1 was run?
**A.** 541 nM

**Q.** What about the Emax % (efficacy, percentage of mean maximal response to 10 μM 5-HT) of the same molecule?
**A.** 82.3%
